# Assay results: US6958416B2, “Valproyltaurinamide derivatives as anticonvulsant amd CNS active agents” (Yissum Research Development Company of the Hebrew …, priority 2001, dated 2005)
# Test system: maximal electroshock seizure (MES)
# Experiment: maximal electroshock seizure test (MES)
# Format: in vivo, rats
# Conditions: protective index PI=TD50/ED50, MES
# Text: The first model the maximal electroshock seizure test (MES), is used to show efficacy for antiepileptic agents against partial and generalized seizure type epilepsy, the common epilepsy among therapy resistant epileptic patients. The second model, the subcutaneous pentylenetetrazole test (s.c. Met) which measures seizure threshold and is a standard screening procedure to show efficacy for agents against […] seizures. In these studies, convulsions were inhibited or prevented after oral (p.o.) and intraperitoneal (ip) administration of the compounds.
SMILES,PI (MES) ip,PI (MES) (po) (po)
"CCCC(CCC)C(=O)NCCS(=O)(=O)N(C)C [B, N-(2-Propylpentanoyl)taurine-N′,N′-dimethylamide]",3.2,–
"CCCC(CCC)C(=O)NCCS(=O)(=O)NC(C)C [C, N-(2-Propylpentanoyl)taurine-N′-isopropylamide]",12.1,–
"CCCC(CCC)C(=O)O [VPA, valproic acid, reference compound]",–,0.6
"CCCC(CCC)C(=O)NCCS(N)(=O)=O [Compound A, N-(2-Propylpentanoyl)taurinamide]",>7,–
